{
  "source": "paper PMC11130238",
  "about": "“Mechanism of complement inhibition by a mosquito protein revealed through cryo-EM” (Communications Biology, 2024)",
  "target": "C3bB, the C3 proconvertase (human)",
  "assay": "SEC; C3b, FB and albicin mixed in buffer A with MgCl2 replaced by NiCl2 (no FD); Superdex 200 Increase in buffer A-Ni; SDS-PAGE of fractions; both purified",
  "note": "Results are given in words; binding and its absence hold for the method and conditions named.",
  "data": [
    {"binder": "albicin (natural protein, albicin, salivary Sg7-1 family protein of the mosquito Anopheles albimanus; crystal structure PDB 6XKE; Four-helix bundle with two disulfide bonds; Probably made without its signal peptide (surmised); also called Sg7-1 protein of An. albimanus) ANNHIRTVLKLFRTIDLDDSKKSFYLTAAKYGIQTQLREPIIRIVGGYLPSTKLSEACVKNMISEVYEIEGDFYSKFSYACEDHAPYSVECLEDARDDYLTQLVELFKETKKCLRE", "values": [
      {"measurement": "binding", "value": "no binding"}
    ]}
  ]
}
